Results are given in words; binding and its absence hold for the method and conditions named. Binding calls can cover weak binding; strength is not graded here. For part of these data: Tags and fused reporters may be left off the sequences shown. For part of these data: Binding seen in cells or lysates may run through a third protein.

The text below walks through data of PMC10711660, “An extended Tudor domain within Vreteno interconnects Gtsf1L and Ago3 for piRNA biogenesis in Bombyx mori” (The EMBO Journal, 2023).

For assay [1], the target named is T1, HA‐BmGtsf1L‐eGFP (Bombyx mori).
T1 sequence: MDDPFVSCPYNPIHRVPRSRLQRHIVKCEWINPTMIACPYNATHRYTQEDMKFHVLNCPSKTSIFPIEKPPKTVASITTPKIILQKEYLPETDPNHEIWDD
The assay can be described thus: co-IP; GFP-Trap magnetic agarose or control beads, lysate of BmN4 cells stably expressing HA-BmGtsf1L-eGFP; also after dsRNA knock-down of luciferase, BmAgo3 or BmVreteno; IP-150 buffer, overnight 4°C; Western blot. In general terms: A western blot detects proteins with antibodies after separation by electrophoresis.

Assay [2] addresses T2, endogenous BmAgo3 (Bombyx mori (endogenous in BmN4)) (UniProt A9ZSZ2).
T2 sequence: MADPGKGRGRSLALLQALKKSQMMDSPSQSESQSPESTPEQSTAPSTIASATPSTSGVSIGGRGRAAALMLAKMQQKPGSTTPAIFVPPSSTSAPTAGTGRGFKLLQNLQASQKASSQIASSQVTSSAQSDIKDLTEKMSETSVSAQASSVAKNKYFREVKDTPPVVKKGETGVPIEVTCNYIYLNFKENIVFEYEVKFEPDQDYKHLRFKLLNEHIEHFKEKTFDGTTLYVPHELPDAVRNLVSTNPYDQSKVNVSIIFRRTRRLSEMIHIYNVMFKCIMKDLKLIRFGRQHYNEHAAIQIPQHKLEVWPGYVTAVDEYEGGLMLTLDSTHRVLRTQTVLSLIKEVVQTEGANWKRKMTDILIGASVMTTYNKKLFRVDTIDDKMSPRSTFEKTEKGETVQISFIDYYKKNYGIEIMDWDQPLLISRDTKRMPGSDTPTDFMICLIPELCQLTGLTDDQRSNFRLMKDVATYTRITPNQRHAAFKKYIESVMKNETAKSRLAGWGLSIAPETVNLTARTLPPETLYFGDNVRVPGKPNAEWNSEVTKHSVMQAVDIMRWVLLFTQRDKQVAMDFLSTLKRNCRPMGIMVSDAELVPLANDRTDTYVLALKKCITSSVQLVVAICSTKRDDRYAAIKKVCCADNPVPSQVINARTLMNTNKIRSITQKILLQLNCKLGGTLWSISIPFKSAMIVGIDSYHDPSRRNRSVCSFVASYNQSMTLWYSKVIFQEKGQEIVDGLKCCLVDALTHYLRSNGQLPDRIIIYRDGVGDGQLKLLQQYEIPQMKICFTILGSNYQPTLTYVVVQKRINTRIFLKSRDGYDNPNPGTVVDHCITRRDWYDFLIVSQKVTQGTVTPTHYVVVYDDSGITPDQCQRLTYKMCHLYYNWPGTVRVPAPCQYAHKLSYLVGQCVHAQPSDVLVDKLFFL
In words: co-IP; antibodies to endogenous BmAgo3, Siwi or BmVreteno on Protein G Dynabeads, lysate of naive BmN4 cells; non-immune serum or rabbit IgG as control; IP-150 buffer, overnight 4°C; Western blot.

Assay [3] addresses T2, endogenous BmAgo3 (Bombyx mori (endogenous in BmN4)). The assay can be described thus: co-IP; antibodies to endogenous BmAgo3, Siwi or BmVreteno on Protein G Dynabeads, lysate of BmN4 cells stably expressing HA-BmGtsf1L-eGFP; also after dsRNA knock-down of luciferase, BmGtsf1L or BmVreteno; IP-150 buffer, overnight 4°C; Western blot.
The target in assay [4] is BmGtsf1L‐eGFP fragment missing the N‐terminal part, including the two CHHC Zn fingers (Bombyx mori). The assay can be described thus: co-IP; GFP-IP on extracts of BmN4 cells transfected with BmGtsf1L-eGFP full length, deletion variants or alanine mutants; HA-eGFP as control; Western blot of endogenous BmVreteno and BmAgo3.
Assay [5] has as its target BmGtsf1L‐eGFP with deletion of the C‐terminus (Bombyx mori). Described as above.
Assay [6] addresses GST‐BmVreteno‐S (Bombyx mori). The assay can be described thus: pull-down; GSH pull-down: 5 μM GST-BmVreteno (or fragment, variant) on Glutathione Sepharose 4B with 10 μM His-BmGtsf1L, 2 h 4°C, PBS with 0.1% Triton-X100; SDS-PAGE, Coomassie (Fig 5G also anti-His Western blot); both purified.
The target of assay [7] is GST‐BmVreteno‐L aromatic cage mutant (YYN > AAA) (Bombyx mori). Described as above.

For “endogenous BmSpn‐E (Bombyx mori (endogenous in BmN4))”, the binding result in assay [1] is given as “binds”.

With “endogenous BmQin (Bombyx mori (endogenous in BmN4))”, the binding entry in assay [1] is given as “binds”.

Turning to “endogenous BmVreteno‐Short (S) isoform (Bombyx mori (endogenous in BmN4))”, the binding result in assay [2], in assay [1] and in assay [3] was “binds” in each case.

B1: endogenous BmAgo3 (protein, UniProt A9ZSZ2 1-926)
chain: T2 sequence
Take B1: the binding entry in assay [4] and in assay [5] was “binds” throughout.

B2: His‐BmGtsf1L (natural protein, Bombyx mori)
chain: T1 sequence
notes: BmGtsf1L, Bombyx mori; pET28a, thrombin site after the His6 tag; also called His6‐thrombin‐BmGtsf1L; recombinant BmGtsf1L; source: E. coli BL21 DE3 codon+, purified (HisTrap, gel filtration); not shown: His6, N-terminal, kept
With B2, the binding result in assay [6] and in assay [7] was “binds” in each case.
